PubChem BioAssay AID1259424 | University of Nebraska Medical Center, 2018
Assay: 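Seek colon cancer survival genes behaving like KSR1, using a six-gene signature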 (primary screen). Cells: human HCT116 colon cancer cells. Reagent: siRNA pool against human genes, 50 nM. Read-out: 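Six signature mRNAs by branched-DNA multiplex assay, scaled to two housekeeping genes and non-targeting median, log2; matched to mean KSR1 knockdown profile by Pearson correlation and euclidean distance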. Direction: mean correlation with KSR1 profile and KSR1 correlation: higher = expression change more like KSR1 knockdown; mean distance from KSR1 profile: higher = expression change less like KSR1 knockdown.
In all, the deposit lists about 14,000 reagents; shown is an unselected part. 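Higher correlation or smaller distance means closer resemblance to KSR1 loss; control wells, including KSR1 knockdowns, recur on many plates.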 The record does not give: the time to read-out.

Gene	mean correlation with KSR1 profile	mean distance from KSR1 profile	KSR1 correlation, replicate 1	KSR1 correlation, replicate 2	KSR1 correlation, replicate 3
MAP1LC3A	0.102	3.1	0.682	-0.377	-0.391
CARD9	-0.657	3.14	-0.55	-0.827	-0.617
SSH1	-0.144	2.21	-0.144	-0.615	0.0809
UBE3A	-0.213	1.47	0.121	-0.62	-0.489
DIS3	-0.558	2.03	-0.397	-0.697	-0.31
LINC02249	0.471	1.12	0.709	0.3	0.185
TUBB6	0.631	1.13	0.558	0.755	0.434
GCM1	0.268	2.58	0.495	0.432	-0.0826
GPR180	-0.48	1.98	-0.542	-0.793	-0.577
CUX2	-0.547	2.4	-0.314	-0.544	-0.582
ASF1B	-0.45	2.46	-0.547	-0.443	-0.33
PORCN	-0.0406	1.73	-0.284	0.0687	-0.133
EXOSC8	0.0846	2.32	-0.343	0.163	0.21
SMIM11	0.678	1.07	0.499	0.788	0.498
NAA50	0.424	2.72	0.163	0.472	0.378
SP7	-0.115	3.1	-0.195	-0.307	-0.0663
SELPLG	-0.41	2.3	-0.432	-0.519	-0.357

In a second layout: results already given
Gene,mean correlation with KSR1 profile,mean distance from KSR1 profile,"KSR1 correlation, replicate 1","KSR1 correlation, replicate 2","KSR1 correlation, replicate 3"
DIS3,-0.558,2.03,-0.397,-0.697,-0.31
LINC02249,0.471,1.12,0.709,0.3,0.185
TUBB6,0.631,1.13,0.558,0.755,0.434
GCM1,0.268,2.58,0.495,0.432,-0.0826
GPR180,-0.48,1.98,-0.542,-0.793,-0.577

The listing continues:
Gene	mean correlation with KSR1 profile	mean distance from KSR1 profile	KSR1 correlation, replicate 1	KSR1 correlation, replicate 2	KSR1 correlation, replicate 3
BAGE3	0.583	2.04	0.566	0.536	0.248
PDXP	-0.0118	3.87	-0.0457	0.0665	-0.228
WDR48	-0.191	1.87	-0.287	-0.193	0.0232
DSTYK	0.396	1.16	0.401	0.343	0.324
FAXDC2	0.28	1.34	0.283	0.308	0.281
PPP1R14B	0.252	1.81	0.269	0.301	-0.0799
CYP11B2	0.61	1.13	0.579	0.449	0.618
HSPB8	0.782	1.61	0.776	0.665	0.588
EPHA5	0.604	1.14	0.427	0.421	0.573
IL22	0.379	1.26	0.261	0.37	0.461
SPI1	0.473	4.34	0.571	0.558	0.409
FMR1	-0.117	3.29	-0.0468	-0.354	-0.0405
CLCN6	-0.225	2.84	-0.22	-0.319	-0.365
NCR3	-0.52	2.37	-0.562	-0.377	-0.735
RUVBL1	-0.325	1.96	-0.562	-0.393	-0.00253
PART1	-0.733	3.14	-0.594	-0.774	-0.655
RAPGEF3	-0.189	3.79	0.0729	-0.454	-0.302
